Laboratory results: PubChem BioAssay AID1159579 (Peter MacCallum Cancer Centre, 2015)

Screen: 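Find genes whose silencing alters migration of lymphatic endothelial cells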 (follow-up of hits)
Cells: human dermal lymphatic endothelial cells
Knock-down reagent: single siRNA against human genes, 25 nM
Measured: 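Scratch wound imaging measuring area filled by moving cells plus nuclei number, averaged over two wells and scaled to mock-transfected controls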
Reading the numbers: migration relative to mock: higher = more migration into the scratch; mean nuclei count: higher = more cells remaining
Call rule: 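Called active when the migration ratio is 0.6 or lower (impaired) or 1.3 or higher (accelerated), but inactive whenever the mean nuclei count falls under 3300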
Calls: active = migration changed (impaired or accelerated); inactive = no migration change, or too few cells
Shown is one part, drawn at random, of about 2,000 deposited reagents. Over the whole deposit, 549 (27%) were called active. 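Some migration ratios are negative; siRNAs with too few cells are inactive whatever their migration ratio.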 Reagents against one gene are numbered here. Not given: the time to read-out.

no.	Gene	siRNA no.	migration relative to mock	migration and cell number class	mean nuclei count	outcome
1	MYL11 (myosin light chain 11)	1	0.64	no change in migration or cell number	5846	inactive
2	MYL11 (myosin light chain 11)	2	1.12	no change in migration or cell number	7037	inactive
3	MYL11 (myosin light chain 11)	3	-0.25	migration reduced	4524	active
4	MYL11 (myosin light chain 11)	4	0.79	no change in migration or cell number	6305	inactive
5	SYCP2L (synaptonemal complex protein 2 like)	1	0.45	migration reduced	6126	active
6	SYCP2L (synaptonemal complex protein 2 like)	2	0.61	no change in migration or cell number	5008	inactive
7	SYCP2L (synaptonemal complex protein 2 like)	3	0.72	no change in migration or cell number	5418	inactive
8	SYCP2L (synaptonemal complex protein 2 like)	4	0.96	no change in migration or cell number	6306	inactive
9	LRRC4 (leucine rich repeat containing 4)	1	0.57	migration reduced	5728	active
10	LRRC4 (leucine rich repeat containing 4)	2	0.85	no change in migration or cell number	4031	inactive
11	LRRC4 (leucine rich repeat containing 4)	3	0.85	no change in migration or cell number	5036	inactive
12	LRRC4 (leucine rich repeat containing 4)	4	0.71	no change in migration or cell number	4590	inactive
13	RDH11 (retinol dehydrogenase 11)	1	0.2	migration reduced	6992	active
14	RDH11 (retinol dehydrogenase 11)	2	0.74	no change in migration or cell number	6284	inactive
15	RDH11 (retinol dehydrogenase 11)	3	0.64	no change in migration or cell number	5341	inactive
16	RDH11 (retinol dehydrogenase 11)	4	0.76	no change in migration or cell number	6528	inactive
17	SCN1B (sodium voltage-gated channel beta subunit 1)	1	0.66	no change in migration or cell number	5548	inactive
18	SCN1B (sodium voltage-gated channel beta subunit 1)	2	0.54	migration reduced	4469	active
19	SCN1B (sodium voltage-gated channel beta subunit 1)	3	1.09	no change in migration or cell number	5504	inactive
20	SCN1B (sodium voltage-gated channel beta subunit 1)	4	0.35	migration reduced	3422	active
21	U2AF1L4 (U2 small nuclear RNA auxiliary factor 1 like 4)	1	1.04	no change in migration or cell number	6021	inactive
22	U2AF1L4 (U2 small nuclear RNA auxiliary factor 1 like 4)	2	0.55	migration reduced	5206	active
23	U2AF1L4 (U2 small nuclear RNA auxiliary factor 1 like 4)	3	0.72	no change in migration or cell number	4995	inactive
24	U2AF1L4 (U2 small nuclear RNA auxiliary factor 1 like 4)	4	0.78	no change in migration or cell number	5496	inactive
25	GLI1 (GLI family zinc finger 1)	1	0.48	migration reduced	6662	active
26	GLI1 (GLI family zinc finger 1)	2	0.62	no change in migration or cell number	5352	inactive
27	GLI1 (GLI family zinc finger 1)	3	0.64	no change in migration or cell number	4774	inactive
28	GLI1 (GLI family zinc finger 1)	4	0.66	no change in migration or cell number	6437	inactive
29	LRSAM1 (leucine rich repeat and sterile alpha motif containing 1)	1	1.07	no change in migration or cell number	6114	inactive
30	LRSAM1 (leucine rich repeat and sterile alpha motif containing 1)	2	0.94	no change in migration or cell number	5716	inactive
31	LRSAM1 (leucine rich repeat and sterile alpha motif containing 1)	3	1.31	migration increased	5724	active
32	LRSAM1 (leucine rich repeat and sterile alpha motif containing 1)	4	0.4	migration reduced	5337	active
33	PI4KB (phosphatidylinositol 4-kinase beta)	1	0.32	migration reduced	4092	active
34	PI4KB (phosphatidylinositol 4-kinase beta)	2	0.18	migration reduced	4598	active
35	PI4KB (phosphatidylinositol 4-kinase beta)	3	0.35	migration reduced	5954	active
36	PI4KB (phosphatidylinositol 4-kinase beta)	4	0.98	no change in migration or cell number	6630	inactive
37	PI4K2A (phosphatidylinositol 4-kinase type 2 alpha)	1	1.01	no change in migration or cell number	4546	inactive
38	PI4K2A (phosphatidylinositol 4-kinase type 2 alpha)	2	0.65	no change in migration or cell number	5088	inactive
39	PI4K2A (phosphatidylinositol 4-kinase type 2 alpha)	3	0.84	no change in migration or cell number	6174	inactive
40	PI4K2A (phosphatidylinositol 4-kinase type 2 alpha)	4	1	no change in migration or cell number	6793	inactive
41	ERLIN1 (ER lipid raft associated 1)	1	0.94	no change in migration or cell number	6156	inactive
42	ERLIN1 (ER lipid raft associated 1)	2	0.52	migration reduced	4806	active
43	ERLIN1 (ER lipid raft associated 1)	3	0.68	no change in migration or cell number	4198	inactive
44	ERLIN1 (ER lipid raft associated 1)	4	1.02	no change in migration or cell number	5767	inactive
45	MARCHF10 (membrane associated ring-CH-type finger 10)	1	0.96	no change in migration or cell number	7800	inactive
46	MARCHF10 (membrane associated ring-CH-type finger 10)	2	0.74	no change in migration or cell number	5670	inactive
47	MARCHF10 (membrane associated ring-CH-type finger 10)	3	0.76	no change in migration or cell number	4958	inactive
48	MARCHF10 (membrane associated ring-CH-type finger 10)	4	1.02	no change in migration or cell number	5570	inactive
49	AXL (AXL receptor tyrosine kinase)	1	0.88	no change in migration or cell number	6476	inactive
50	AXL (AXL receptor tyrosine kinase)	2	0.4	migration reduced	5740	active
51	AXL (AXL receptor tyrosine kinase)	3	0.94	no change in migration or cell number	8299	inactive
52	AXL (AXL receptor tyrosine kinase)	4	0.52	migration reduced	5906	active
53	APBA3 (amyloid beta precursor protein binding family A member 3)	1	0.58	migration reduced	5213	active
54	APBA3 (amyloid beta precursor protein binding family A member 3)	2	0.94	no change in migration or cell number	7104	inactive
55	APBA3 (amyloid beta precursor protein binding family A member 3)	3	0.65	no change in migration or cell number	6010	inactive
56	APBA3 (amyloid beta precursor protein binding family A member 3)	4	0.44	migration reduced	4161	active
57	CDC42 (cell division cycle 42)	1	0.54	migration reduced	5018	active
58	CDC42 (cell division cycle 42)	2	0.31	migration reduced	6118	active
59	CDC42 (cell division cycle 42)	3	-0.02	migration reduced	5122	active
60	CDC42 (cell division cycle 42)	4	0.53	migration reduced	5800	active
61	KATNIP (katanin interacting protein)	1	0.4	migration reduced	6072	active
62	KATNIP (katanin interacting protein)	2	0.51	migration reduced	4354	active
63	KATNIP (katanin interacting protein)	3	0.97	no change in migration or cell number	5333	inactive
64	KATNIP (katanin interacting protein)	4	1.07	no change in migration or cell number	5659	inactive
65	C5AR1 (complement C5a receptor 1)	1	-0.12	migration reduced	3395	active
66	C5AR1 (complement C5a receptor 1)	2	0.98	no change in migration or cell number	6686	inactive
67	C5AR1 (complement C5a receptor 1)	3	0.17	migration reduced	5376	active
68	C5AR1 (complement C5a receptor 1)	4	0.74	no change in migration or cell number	6442	inactive
69	STOX2 (storkhead box 2)	1	0.8	no change in migration or cell number	4181	inactive
70	STOX2 (storkhead box 2)	2	0.92	no change in migration or cell number	5634	inactive
71	STOX2 (storkhead box 2)	3	1.05	no change in migration or cell number	5234	inactive
72	STOX2 (storkhead box 2)	4	1.02	no change in migration or cell number	6344	inactive
73	AKT3 (AKT serine/threonine kinase 3)	1	0.23	migration reduced	5644	active
74	AKT3 (AKT serine/threonine kinase 3)	2	-0.24	migration reduced	4296	active
75	AKT3 (AKT serine/threonine kinase 3)	3	0.53	migration reduced	5706	active
76	AKT3 (AKT serine/threonine kinase 3)	4	0.78	no change in migration or cell number	4584	inactive
77	LYPLA2 (lysophospholipase 2)	1	0.88	no change in migration or cell number	6487	inactive
78	LYPLA2 (lysophospholipase 2)	2	0.5	migration reduced	6764	active
79	LYPLA2 (lysophospholipase 2)	3	0.19	migration reduced	6312	active
80	LYPLA2 (lysophospholipase 2)	4	0.76	no change in migration or cell number	6150	inactive
81	CRBN (cereblon)	1	0.81	no change in migration or cell number	5084	inactive
82	CRBN (cereblon)	2	1.02	no change in migration or cell number	5796	inactive
83	CRBN (cereblon)	3	-0.21	too few cells; migration not scored	2868	inactive
84	CRBN (cereblon)	4	0.98	no change in migration or cell number	4884	inactive
85	FARP1 (FERM, ARH/RhoGEF and pleckstrin domain protein 1)	1	0.94	no change in migration or cell number	5794	inactive
86	FARP1 (FERM, ARH/RhoGEF and pleckstrin domain protein 1)	2	0.64	no change in migration or cell number	5694	inactive
87	FARP1 (FERM, ARH/RhoGEF and pleckstrin domain protein 1)	3	0.61	no change in migration or cell number	5508	inactive
88	FARP1 (FERM, ARH/RhoGEF and pleckstrin domain protein 1)	4	0.46	migration reduced	5082	active

Targets above whose target name starts with A or a:
Gene	siRNA no.	migration relative to mock	migration and cell number class	mean nuclei count	outcome
AXL (AXL receptor tyrosine kinase)	1	0.88	no change in migration or cell number	6476	inactive
AXL (AXL receptor tyrosine kinase)	2	0.4	migration reduced	5740	active
AXL (AXL receptor tyrosine kinase)	3	0.94	no change in migration or cell number	8299	inactive
AXL (AXL receptor tyrosine kinase)	4	0.52	migration reduced	5906	active
APBA3 (amyloid beta precursor protein binding family A member 3)	1	0.58	migration reduced	5213	active
APBA3 (amyloid beta precursor protein binding family A member 3)	2	0.94	no change in migration or cell number	7104	inactive
APBA3 (amyloid beta precursor protein binding family A member 3)	3	0.65	no change in migration or cell number	6010	inactive
APBA3 (amyloid beta precursor protein binding family A member 3)	4	0.44	migration reduced	4161	active
AKT3 (AKT serine/threonine kinase 3)	1	0.23	migration reduced	5644	active
AKT3 (AKT serine/threonine kinase 3)	2	-0.24	migration reduced	4296	active
AKT3 (AKT serine/threonine kinase 3)	3	0.53	migration reduced	5706	active
AKT3 (AKT serine/threonine kinase 3)	4	0.78	no change in migration or cell number	4584	inactive
